# Measurements taken from PubChem BioAssay AID292 (DTP/NCI, 2004).
# The list does not hold the whole screen: it gathers tests that were run many times, whatever their T/C, doses with no T/C, and many T/C values between a quarter and a half above the control. Other doses and runs of a compound stand elsewhere. T/C gives the treated animals as a percentage of the vehicle group. Some doses have a count of surviving animals in place of a T/C: the source files T/C as zero there, which appears to mark a toxic dose or a test without result, not a measured value. Some survivor counts are full or nearly so, which does not show that the dose was tolerated: survival well below the control is almost never listed, so the zero probably covers shortened survival too. Counts of survivors are from the toxicity check (mostly the fifth day) where no day follows; animals may have died later. Schedules are NCI's codes, taken here to give the interval after Q, in days (D) or hours (H), and the number of doses after X. Some doses were run more than once; their values stand side by side, smallest first. Where survival is the endpoint, the PubChem record calls one and a half times the control and up active, and a quarter to a half above the control has no call in these data; cut-offs in other NCI protocols can differ. Some T/C values are followed by the survivors on the day toxicity was checked, most often the fifth; without a count, all were alive then. Additions like (4×) give the number of equal values in this list.
# System: B6C3F1 mice, ip Sarcoma M5076, median survival T/C
# Test: NCI In Vivo Anticancer Drug Screen. Data for tumor model Sarcoma M5076 (intraperitoneal) in B6C3F1 mice
# Details: T/C endpoint: median survival time, higher T/C = longer survival
# In short: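 Tumour cells were transplanted into mice, compound or vehicle was given, survival of both groups was followed, and the treated figure was expressed over the control figure.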
# [1] = dose: 60.0 mg/kg/injection, schedule: Q04DX004 (ip), vehicle: saline
# [2] = dose: 120.0 mg/kg/injection, schedule: Q01DX001 (ip), vehicle: saline
# [3] = dose: 120.0 mg/kg/injection, schedule: Q04DX004 (ip), vehicle: saline
# [4] = dose: 160.0 mg/kg/injection, schedule: Q04DX005 (ip), vehicle: saline
# [5] = dose: 240.0 mg/kg/injection, schedule: Q01DX001 (ip), vehicle: saline
smiles,measurement,setting,value
O=P1(N(CCCl)CCCl)NCCCO1 (stereo not given),T/C,"dose: 15.0 mg/kg/injection, schedule: Q04DX004 (ip), vehicle: saline","99, 100, 104, 108, 110 (2×), 111, 112, 115, 118, 121 % of control"
same,T/C,"dose: 20.0 mg/kg/injection, schedule: Q04DX004 (ip), vehicle: saline","100, 105, 115, 117, 118 % of control"
same,T/C,"dose: 20.0 mg/kg/injection, schedule: Q04DX005 (ip), vehicle: saline","101, 110 [9 of 10 alive on day 9], 122 (2×), 131 % of control"
same,T/C,"dose: 30.0 mg/kg/injection, schedule: Q01DX001 (ip), vehicle: saline","98, 100, 101, 107, 110 (2×), 112, 114, 115, 124 % of control"
same,T/C,"dose: 30.0 mg/kg/injection, schedule: Q04DX004 (ip), vehicle: saline","113, 114 [9 of 10 alive on day 14], 115, 116, 118, 119, 125 (2×), 127 [8 of 10 alive on day 14], 138, 141 % of control"
same,T/C,"dose: 40.0 mg/kg/injection, schedule: Q04DX003 (ip), vehicle: saline",147 % of control
same,T/C,"dose: 40.0 mg/kg/injection, schedule: Q04DX004 (ip), vehicle: saline, evaluated on day 29",138 % of control
same,T/C,"dose: 40.0 mg/kg/injection, schedule: Q04DX004 (ip), vehicle: saline, evaluated on day 36",180 % of control
same,T/C,"dose: 40.0 mg/kg/injection, schedule: Q04DX004 (ip), vehicle: saline, evaluated on day 37",138 % of control
same,T/C,"dose: 40.0 mg/kg/injection, schedule: Q04DX004 (ip), vehicle: saline, evaluated on day 40",194 % of control
same,T/C,"dose: 40.0 mg/kg/injection, schedule: Q04DX004 (ip), vehicle: saline, evaluated on day 43",185 and 199 % of control
same,T/C,"dose: 40.0 mg/kg/injection, schedule: Q04DX004 (ip), vehicle: saline, evaluated on day 49",188 % of control
same,T/C,"dose: 40.0 mg/kg/injection, schedule: Q04DX004 (ip), vehicle: saline, evaluated on day 60","116, 127, 132, 135, 136, 138, 143, 146, 149 (2×), 150 (2×), 152 (2×), 153, 156, 157, 158, 160 (2×), 163, 165 (2×), 167, 168, 169 (2×), 170, 172 (2×), 174 (3×), 175 (3×), 177 (2×), 178, 181, 182, 188, 192, 193 (2×), 195, 198, 200, 201, 212, 213, 214, 216, 220, 222, 266 % of control"
same,T/C,"dose: 40.0 mg/kg/injection, schedule: Q04DX004 (ip), vehicle: saline, evaluated on day 69",128 % of control
same,T/C,"dose: 40.0 mg/kg/injection, schedule: Q04DX004 (ip), vehicle: saline, evaluated on day 75","101 [9 of 10 alive], 129, 140, 156, 161 % of control"
same,T/C,"dose: 40.0 mg/kg/injection, schedule: Q04DX005 (ip), vehicle: saline","115, 122, 146, 158, 173 % of control"
same,T/C,"dose: 60.0 mg/kg/injection, schedule: Q01DX001 (ip), vehicle: saline","107, 115, 118 (2×), 124, 128, 129, 130, 132, 133 % of control [9 of 10 alive on day 14]"
same,T/C,[1],"145, 161, 163 (2×), 165, 170, 173, 175, 177, 180, 206, 207 (2×), 212 % of control"
same,survivor count,[1],5 of 10 on day 14
same,T/C,"dose: 80.0 mg/kg/injection, schedule: Q04DX004 (ip), vehicle: saline, evaluated on day 29",138 % of control [9 of 10 alive on day 14]
same,T/C,"dose: 80.0 mg/kg/injection, schedule: Q04DX004 (ip), vehicle: saline, evaluated on day 36",180 % of control
same,T/C,"dose: 80.0 mg/kg/injection, schedule: Q04DX004 (ip), vehicle: saline, evaluated on day 37",160 % of control
same,T/C,"dose: 80.0 mg/kg/injection, schedule: Q04DX004 (ip), vehicle: saline, evaluated on day 40",194 % of control
same,T/C,"dose: 80.0 mg/kg/injection, schedule: Q04DX004 (ip), vehicle: saline, evaluated on day 43",199 and 207 % of control
same,T/C,"dose: 80.0 mg/kg/injection, schedule: Q04DX004 (ip), vehicle: saline, evaluated on day 49",234 % of control
same,T/C,"dose: 80.0 mg/kg/injection, schedule: Q04DX004 (ip), vehicle: saline, evaluated on day 60","126, 133, 165, 166, 179, 189, 190, 192, 198, 200, 201, 204, 205, 207 (2×), 209, 213, 214 [9 of 10 alive on day 14], 216, 219 (2×), 220 [7 of 10 alive on day 14], 223, 224, 226, 228, 231, 232 (2×), 233, 234 (3×), 235 (3×), 236, 238, 239 (2×), 241 (2×), 242 (2×), 244, 245 (2×), 246 (2×), 251, 252, 252 [9 of 10 alive on day 14], 263, 266, 277, 281, 286, 291 % of control"
same,T/C,"dose: 80.0 mg/kg/injection, schedule: Q04DX004 (ip), vehicle: saline, evaluated on day 75","143, 183, 186, 225, 231 [9 of 10 alive on day 14], 235 % of control"
same,survivor count,"dose: 80.0 mg/kg/injection, schedule: Q04DX004 (ip), vehicle: saline",6 of 10 on day 14
same,T/C,"dose: 80.0 mg/kg/injection, schedule: Q04DX005 (ip), vehicle: saline","152, 198, 206, 252, 276 % of control"
same,T/C,[2],"134, 137, 153, 158, 159 (2×), 163, 167, 177 % of control"
same,survivor count,[2],6 of 10 on day 14
same,T/C,[3],"107 [9 of 10 alive on day 14], 143, 144 [9 of 10 alive on day 14], 199, 221, 223, 229, 241, 250, 263, 265, 269, 275, 276 % of control"
same,survivor count,[3],6 of 10 on day 14
same,T/C,"dose: 160.0 mg/kg/injection, schedule: Q04DX004 (ip), vehicle: saline, evaluated on day 29",138 % of control
same,T/C,"dose: 160.0 mg/kg/injection, schedule: Q04DX004 (ip), vehicle: saline, evaluated on day 36",180 % of control
same,T/C,"dose: 160.0 mg/kg/injection, schedule: Q04DX004 (ip), vehicle: saline, evaluated on day 37",160 % of control
same,T/C,"dose: 160.0 mg/kg/injection, schedule: Q04DX004 (ip), vehicle: saline, evaluated on day 40",194 % of control
same,T/C,"dose: 160.0 mg/kg/injection, schedule: Q04DX004 (ip), vehicle: saline, evaluated on day 43",199 and 207 % of control
same,T/C,"dose: 160.0 mg/kg/injection, schedule: Q04DX004 (ip), vehicle: saline, evaluated on day 49",234 % of control
same,T/C,"dose: 160.0 mg/kg/injection, schedule: Q04DX004 (ip), vehicle: saline, evaluated on day 60","86, 93, 95, 112 [8 of 10 alive on day 14], 115, 141, 159, 219 [9 of 10 alive on day 14], 220, 224, 227 [9 of 10 alive on day 14], 228, 230, 230 [9 of 10 alive on day 14], 232, 232 [8 of 10 alive on day 14], 241, 242, 244, 245, 246, 246 [9 of 10 alive on day 14], 247 (2×), 248, 249, 250, 253 (3×), 254, 260, 262, 267, 268, 269 (2×), 270, 270 [9 of 10 alive on day 14], 272, 275 (2×), 275 [9 of 10 alive on day 14], 276 (2×), 277 (3×), 280, 285, 287 (2×), 291 (2×), 292, 304 % of control"
same,T/C,"dose: 160.0 mg/kg/injection, schedule: Q04DX004 (ip), vehicle: saline, evaluated on day 75","178, 215, 222, 273, 284, 285 % of control"
same,survivor count,"dose: 160.0 mg/kg/injection, schedule: Q04DX004 (ip), vehicle: saline",6 of 10 on day 14 and 8 of 10 on day 14
same,T/C,[4],"215 (2×), 292, 319 % of control"
same,survivor count,[4],10 of 10 on day 9
same,T/C,[5],"160, 176, 181, 190, 195, 198, 211 [9 of 10 alive on day 14], 229, 230 % of control"
same,survivor count,[5],4 of 10 on day 14
COc1ccc2nc(C)cc(N/N=C/c3cccnc3)c2c1,survivor count,"dose: 200.0 mg/kg/injection, schedule: Q04DX004 (ip), vehicle: Klucel (hydroxypropylcellulose) (HPC)",0 of 10 on day 14
CCOC(=O)c1cc(-c2ccccc2)c(=O)c(OC)nc1-c1ccccc1,survivor count,"dose: 300.0 mg/kg/injection, schedule: Q04DX004 (ip), vehicle: saline with Tween-80",2 of 10 on day 14
COc1cc2c(c3c1c(=O)c1ccccc1n3C)C=CC(C)(C)O2,T/C,"dose: 50.0 mg/kg/injection, schedule: Q04DX004 (ip), vehicle: saline with Tween-80",136 % of control
same,survivor count,"dose: 100.0 mg/kg/injection, schedule: Q04DX004 (ip), vehicle: saline with Tween-80",5 of 10 on day 14
same,survivor count,"dose: 166.67 mg/kg/injection, schedule: Q04DX004 (ip), vehicle: saline with Tween-80",1 of 10 on day 14
same,survivor count,"dose: 200.0 mg/kg/injection, schedule: Q04DX004 (ip), vehicle: saline with Tween-80",7 of 10 on day 14
O=C(CCl)N1CCN(C/C=C/c2ccccc2)CC1,survivor count,"dose: 300.0 mg/kg/injection, schedule: Q04DX004 (ip), vehicle: saline",6 of 10 on day 14
same,survivor count,"dose: 600.0 mg/kg/injection, schedule: Q04DX004 (ip), vehicle: saline",0 of 10 on day 14
CCCCCCCC1C(=O)OC2CC3C(C)=CC(=O)C(O)C3(C)C3C4(O)OCC23C1C(C)C4O (stereo not given),survivor count,"dose: 40.0 mg/kg/injection, schedule: Q04DX004 (ip), vehicle: Klucel (hydroxypropylcellulose) (HPC)",0 of 10 on day 14
